Source: paper PMC11923636, “Synthesis, Pharmacological Evaluation, and Molecular Modeling of Phthalimide Derivatives as Monoamine Oxidase and Cholinesterase Dual Inhibitors” (ACS Omega, 2025)

Assay: in vitro
Conditions: PAMPA
Experimental: A fundamental requirement for the effectiveness of anti-AD drugs is their capability to traverse the BBB (blood–brain barrier). […]
Briefly, synthesized compounds were first dissolved in DMSO (10 mM) that was further diluted by the addition of phosphate buffer ([…]) having a pH of 7.4. PBL dissolved in dodecane was used for coating the membranes of the donor plates. Then, the test compound (0.2 mL) was added to the plate, followed by PBS (0.2 mL; pH = 7.4) to the acceptor plate, which was further placed under the donor plate in order to form a “sandwich”. […] A UV plate reader was employed for the measurements of the drug concentration in donor, acceptor, and reference wells. The permeability (Pe) of the compounds was measured by using the following formula. [drawing 2]

In the case of COc1cc2c(cc1OC)C(=O)C(CC1CCN(Cc3ccccc3)CC1)C2 (centres unmarked) [donepezil], the “prediction of CNS penetration” value is reported as “CNS+ (key: “CNS+” (prediction of high BBB permeation); Pe (10^–6 cm/s) > 4.39; “CNS–” (prediction of low BBB permeation); Pe (10^–6 cm/s) < 1)” and the Papp (pH 7.4) is reported as 16.7 ± 1.01 ×10⁻⁶ cm/s.
